This is one part of the list. Shown are side measurements of this screen, not its main read-out; they come without a call. Compounds called inactive in the main read-out are mostly missing here. Potencies come from curve fits of mixed quality, noted in brackets.
Test: qHTS Assay to Find Inhibitors of Chronic Active B-Cell Receptor Signaling
Settings: ABC-DLBCL IkBa-CBG/CBR reporter, luminescence ratio (green luciferase fused to IkBa over red control in TMD8 lymphoma cells), 4 h
Method in brief: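 Compounds up to 46 uM were incubated four hours with TMD8 cells whose green CBG68 luciferase is fused to IkappaBalpha; red CBR luminescence normalised the signal, and concentration-effect curves were fitted to fusion, red and ratio data.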

[1] = measured here: CBR red luminescence, cell number
[2] = measured here: IkBa-CBG green luminescence

SMILES | AC50 [1] | AC50 [2]
COc1cccc(CN2CCN(Cc3[nH]c4ccccc4c3C)CC2CCO)c1 (stereo unspecified) | 7.94 µM [falling, partial curve] | –
O=C(COC(=O)Cc1ccsc1)Nc1ccc(Br)cc1F | 0.0058 µM [rising, full curve, poor fit] | –
COc1ccc(C(=O)OCCc2cc3ccccc3c(=O)o2)cc1 | 25.9 µM [falling, single point] | –
Cc1ccc(S(=O)(=O)C(CNC(=O)C(=O)NCCc2ccc(Cl)cc2)c2cccs2)cc1 (stereo unspecified) | 0.1 µM [rising, full curve, poor fit] | –
CCOC(=O)Cn1c(=O)oc2cc(S(=O)(=O)N3CCN(C(=O)c4ccco4)CC3)ccc21 | 29.1 µM [rising, single point] | –
CCCCNC(=O)C1CCCN1C(=O)Nc1cccc(OC)c1 (stereo unspecified) | 2.82 µM [rising, single point] | –
O=C(Nc1nc2ccccc2s1)C1CC(=O)N(c2ccc(Cl)cc2)C1 (stereo unspecified) | 13 µM [falling, single point] | –
COc1ccc(CCNC(=O)C2CCN(S(=O)(=O)N3CC(C)CC(C)C3)CC2)cc1OC (stereo unspecified) | 2 µM [rising, full curve, poor fit] | –
CCCS(=O)(=O)c1nnnn1-c1cccc(OC)c1 | 3.66 µM [falling, full curve] | –
Cc1ccc(Cl)c(OCC(=O)NN2CCN(C)CC2)c1 | 7.94 µM [rising, partial curve, poor fit] | –
Cc1ccc(CNC(=O)CN2CCN(Cc3ccc(C)cc3)C2=O)cc1 | 0.651 µM [falling, full curve, poor fit] | –
O=C(CC1N=C2c3ccccc3N=C(SCc3cccc(Cl)c3)N2C1=O)NCCc1ccccc1 (stereo unspecified) | 15.8 µM [falling, single point] | –
Cc1ccc(C)c(OCCn2cc(/C=C(\C#N)C(=O)NCC3CCCO3)c3ccccc32)c1 (stereo unspecified) | 0.58 µM [rising, full curve, poor fit] | –
COc1cc(/C=C2\SC(N3CCc4ccccc4C3)=NC2=O)cc(OC)c1OC | 0.651 µM [rising, full curve, poor fit] | –
CCOc1ccc(/C=N/NC(=S)NC2CC3CC2C2C=CCC32)cc1 (stereo unspecified) | 35.5 µM [rising, single point] | –
Cc1ncc(CO)c(/C=N/NC(=O)c2cc(O)c(O)c(O)c2)c1O | 11.2 µM [falling, partial curve, poor fit] | –
Cc1c(NC(=O)CSCc2c(F)cccc2Cl)c(=O)n(-c2ccccc2)n1C | 22.4 µM [rising, single point] | –
COc1cc(OC)cc(C(=O)NC(C(=O)NCCc2ccccn2)C(C)C)c1 (stereo unspecified) | 29.1 µM [rising, partial curve, poor fit] | –
O=C(OCC(=O)N1CCOCC1)c1c(Cl)ccc(Cl)c1Cl | 20 µM [rising, partial curve, poor fit] | –
CCCCN(C)CCNC(=O)CN1C(=O)CSc2ccc(S(=O)(=O)N3CCCCC3)cc21 | 12.6 µM [falling, single point] | –

SMILES | AC50 [1] | AC50 [2]
COc1ccccc1-c1nnc(NC(=O)c2ccc(S(=O)(=O)N3CCCC3)cc2)o1 | 11.2 µM [falling, partial curve, poor fit] | –
C[C@]12c3[nH]c4cc(-c5ccco5)ccc4c3CCN1C(=O)[C@@H](CC(=O)NCCC1=CCCCC1)C[C@@H]2C(=O)N1CCCCC1 | 18.4 µM [falling, single point] | –
CC(Oc1ccc(F)cc1)C(=O)Nc1nc(-c2ccccn2)cs1 (stereo unspecified) | 18.4 µM [rising, single point] | 18.4 µM [falling, partial curve, poor fit]
O=c1ncn(-c2ccc(F)cc2)c2ncccc12 | 11.6 µM [rising, partial curve, poor fit] | –
CCn1c(SCC(=O)N2CCCCC2)nc2c(c1=O)SCC2 | 7.08 µM [falling, partial curve] | –
CC(NC(=O)Cc1cccc(C(F)(F)F)c1)c1ccc(F)cc1 (stereo unspecified) | 35.5 µM [falling, single point] | –
COc1cccc(C(=O)Nc2ccc3ccccc3c2)c1 | 14.1 µM [falling, partial curve, poor fit] | –
CCOC(=O)c1cc(-c2ccccc2)nn1CC1CC(c2ccc(OC)cc2)=NO1 (stereo unspecified) | 25.9 µM [rising, single point] | –
c1ccc(-c2noc(COc3ccc4c(c3)OCO4)n2)cc1 | 1.84 µM [falling, partial curve, poor fit] | –
CC(=C\c1ccccc1)/C=C1/SC(=S)N(CCC(=O)Nc2ccccn2)C1=O | 3.98 µM [falling, partial curve, poor fit] | –
CCCNC1=C(N(C(C)=O)c2cccc(F)c2)C(=O)c2ccccc2C1=O | 23.1 µM [falling, single point] | –
CC1CCc2sc(C(=O)Nc3ccc(N4CCOCC4)cc3)cc2C1 (stereo unspecified) | 0.447 µM [rising, full curve] | –
C[C@H](CO)N1C[C@H](C)[C@H](CN(C)S(=O)(=O)c2cn(C)cn2)Oc2ccc(NC(=O)Nc3ccc(C(F)(F)F)cc3)cc2CC1=O | 20.6 µM [rising, partial curve] | 20.6 µM [falling, single point]
O=C(NC1CCCCC1)C(c1ccc(F)cc1)N(C(=O)c1csnn1)C1CCCC1 (stereo unspecified) | 17.8 µM [falling, partial curve, poor fit] | –
CC(NS(=O)(=O)c1ccccc1)C(c1cccs1)N1CCN(c2ccccc2)CC1 (stereo unspecified) | 23.1 µM [falling, partial curve, poor fit] | –
CCOC(=O)c1[nH]c(C)c(C(=O)c2cc(F)ccc2F)c1C | – | 20.6 µM [falling, partial curve]
CCOC(=O)C1CCN(C(=O)c2cc(C)n(C(C)(C)C)n2)CC1 | 17.8 µM [rising, single point] | –
O=C(NCc1ccc2c(c1)OCO2)C1CCCN1C(=O)Nc1cccc(Cl)c1 (stereo unspecified) | 6.51 µM [rising, single point] | –
Brc1cc2c(cc1/C=N/Nc1nc(N3CCOCC3)nc(N3CCOCC3)n1)OCO2 | 0.651 µM [rising, full curve, poor fit] | –

In another format: entries from further up.
COc1cccc(C(=O)Nc2ccc3ccccc3c2)c1
  AC50 [1]: 14.1 µM [falling, partial curve, poor fit]
CCOC(=O)c1cc(-c2ccccc2)nn1CC1CC(c2ccc(OC)cc2)=NO1 (stereo unspecified)
  AC50 [1]: 25.9 µM [rising, single point]
